Patent publication US8236784B2, “Composition comprising threitol phosphate and salts thereof” (Sunny Biodiscovery, Inc., priority 2007, dated 2012)
Some results were stated once for a whole list of compounds, not compound by compound.

System: capillary endothelial cells (BCE)
Assay: Proliferation of capillary endothelial cells (BCE)
Assay type: cell-based
Details: compared against FGF, FIG. 4

Compound	stimulation of proliferation of capillary endothelial cells
O=P(O)(O)OP(=O)(O)OC[C@@H](O)[C@H](O)CO [DP sSBD4, threitol-1-diphosphate]	over 90%
threitol-1-bisphosphate [BP sSBD4]	over 90%
